Experiment [1] addresses T1, recombinant PSAT1 (UniProt Q9Y617).
T1 sequence: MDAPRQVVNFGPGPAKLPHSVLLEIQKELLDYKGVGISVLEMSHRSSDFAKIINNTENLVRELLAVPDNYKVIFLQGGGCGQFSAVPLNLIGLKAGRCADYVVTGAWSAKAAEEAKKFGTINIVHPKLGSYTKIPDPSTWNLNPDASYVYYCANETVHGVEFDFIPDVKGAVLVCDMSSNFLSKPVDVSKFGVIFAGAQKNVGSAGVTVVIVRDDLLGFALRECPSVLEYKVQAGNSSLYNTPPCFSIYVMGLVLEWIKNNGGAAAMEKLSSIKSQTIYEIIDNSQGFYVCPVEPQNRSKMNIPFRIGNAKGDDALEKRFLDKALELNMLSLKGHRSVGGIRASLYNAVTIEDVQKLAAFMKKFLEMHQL
Kind of experiment: co-IP; 50 ng recPSAT1 mixed with 500 ng recPKM1 or recPKM2 in IP lysis buffer; precipitated with anti-PSAT1, immunoblot with anti-PKM1, anti-PKM2, anti-PSAT1; recPSAT1 alone as control; both purified.

Sequences of proteins named here, by UniProt entry; tags and fusion partners are left off.
UniProt P14618: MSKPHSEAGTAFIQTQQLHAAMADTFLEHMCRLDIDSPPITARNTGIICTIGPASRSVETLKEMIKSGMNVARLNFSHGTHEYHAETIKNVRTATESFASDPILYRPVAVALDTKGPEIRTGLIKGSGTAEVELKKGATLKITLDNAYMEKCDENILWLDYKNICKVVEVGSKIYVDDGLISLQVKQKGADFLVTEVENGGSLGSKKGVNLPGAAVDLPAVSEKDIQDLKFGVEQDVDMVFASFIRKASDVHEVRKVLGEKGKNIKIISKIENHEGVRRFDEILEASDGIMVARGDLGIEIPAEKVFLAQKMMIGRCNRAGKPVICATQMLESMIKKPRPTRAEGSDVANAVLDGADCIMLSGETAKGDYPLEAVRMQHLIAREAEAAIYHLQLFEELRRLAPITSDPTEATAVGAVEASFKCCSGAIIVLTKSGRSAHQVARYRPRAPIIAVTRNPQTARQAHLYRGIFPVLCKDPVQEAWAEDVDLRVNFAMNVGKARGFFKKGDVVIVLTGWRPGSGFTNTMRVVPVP

In experiment [2] the target is T2, endogenous PSAT1 (phosphoserine aminotransferase 1) (human (endogenous in HEK293T, A549, PC9)) (UniProt Q9Y617).
T2 sequence: T1 sequence
The experiment in a line: co-IP; endogenous proteins; A549 and PC9 whole-cell lysate (1 mg) precipitated with anti-PSAT1 or rabbit IgG (Protein G Dynabeads); immunoblot with anti-PKM2.

The target in experiment [3] is T2, endogenous PSAT1 (phosphoserine aminotransferase 1) (human (endogenous in HEK293T, A549, PC9)). Kind of experiment: co-IP; HEK293T transfected with FLAG-PKM2 WT or mutants (MT1-4); endogenous PSAT1 precipitated with anti-PSAT1 from 1 mg lysate (Protein G Dynabeads); immunoblot.

These are yes or no findings as the source states them, for the method shown. For part of these data: Binding seen in cells or lysates may run through a third protein. Some results given as binding are weak or reduced against the parent protein; the word gives no strength.

In the case of “human recombinant PKM2 (pyruvate kinase M2) (from UniProt P14618 1-531) (enzyme)”, the binding result in experiment [1] was “binds”.

With “endogenous PKM2 (pyruvate kinase M2) (from UniProt P14618 1-531) (enzyme)”, the binding result in experiment [2] is “binds”.

Turning to “FLAG-PKM2 wild-type (from UniProt P14618 1-531) (enzyme)”, the binding result in experiment [3] is given as “binds”.

Source of the values: article PMC8391706.
